Data as given in PubChem BioAssay AID602196 (INSERM, 2012).
Screen: 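Knock-downs that protect lung cancer cells from cisplatin or sensitise them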. System: human A549 lung cancer cells. Reagent: siRNA pair against human genes. Time to read-out: 48 h transfection before cisplatin; time from cisplatin to read-out not stated. Challenge: cisplatin at a dose killing half of control-siRNA cells; exact dose and duration not given. Measurement: 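Cisplatin cell death as a shift from the 50% death seen with control siRNA; siRNAs toxic or growth-blocking alone scored 0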. Direction: two-siRNA summed score (-2 to +2): higher = both siRNAs protect from cisplatin killing; -2 means both sensitise; mean protection from cisplatin (shift in death) and protection from cisplatin (shift in death), siRNA C: higher = protection from cisplatin killing. Rule for the call: 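siRNAs harmful alone (LDH or WST-1) get 0; others get +1 for less and -1 for more cisplatin killing; genes are active when the two siRNAs give the same sign, summing to ±2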. Meaning of the calls: active = both siRNAs shift cisplatin killing the same way; inactive = no consistent shift, or siRNA harmful alone.
Here is a random part of about 23,000 reagents tested. Over the whole deposit, 455 (2%) are marked active. 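Active includes both protection and sensitisation; some change values fall well beyond the stated -50 to +50 range.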 Not all columns of the deposit are shown. Not stated in the record: the amount of reagent.

no.	Target gene	two-siRNA summed score (-2 to +2)	mean protection from cisplatin (shift in death) (%)	protection from cisplatin (shift in death), siRNA C (%)	activity call
1	OR5T3	0	-3.6	5	inactive
2	WLS	1	9.6	25.2	inactive
3	MYOZ3	0	8.3	9.9	inactive
4	HOXD10	0	-1	-5.7	inactive
5	LOC388593	0	26.2	5.4	inactive
6	MASP1	-1	-24.2	-44.5	inactive
7	KLHL28	0	-2.1	-7.3	inactive
8	NUDT2	1	22.6	24.6	inactive
9	KCNJ5-AS1	0	4.6	10.8	inactive
10	LOC391126	0	29.9	16.3	inactive
11	KCNH6	0	5.9	-1	inactive
12	GUCY1B2	-1	-3.7	-2.3	inactive
13	POLDIP3	1	7.8	15.3	inactive
14	SLC6A14	0	-8	-15.8	inactive
15	ASAP1	0	3.4	7.1	inactive
16	KIAA1183	0	6.4	-1.2	inactive
17	IMPDH1	0	-13	-30.5	inactive
18	LOC285192	0	4.6	4.4	inactive
19	ZNF202	0	6.1	12.3	inactive
20	FBXO8	-1	-5.1	-32.9	inactive
21	LOC127406	1	15.7	21.3	inactive
22	CLCA4	-1	-22.8	1.2	inactive
23	PARS2	0	3.4	1.5	inactive
24	LOC391001	1	12	19.2	inactive
25	LOC339809	1	13.9	15.1	inactive
26	LOC440151	0	13.5	9.5	inactive
27	CYP26C1	0	9	14.9	inactive
28	FOSL2	0	1.2	1.7	inactive
29	UTP20	1	10.3	3.1	inactive
30	ZNF7	1	10.1	5.4	inactive
31	PAAF1	0	12.3	17.1	inactive
32	NCOA7	2	23.7	21.5	active
33	FAM151AP1	0	-7.3	-13.1	inactive
34	GSTCD	0	1.6	9.4	inactive
35	LOC439986	0	-2.5	7.2	inactive
36	PSMB7	0	20.1	18.3	inactive
37	LGALS8	-1	-6.8	2.4	inactive
38	NCCRP1	0	-1.4	-11.6	inactive
39	WBP1L	-1	-2.8	-16.1	inactive
